Patent US20200010814A1, “NOVEL MONOOXYGENASE AND UTILIZATION THEREOF” (KANEKA CORPORATION, priority 2017, published 2020)
No constants are given. Whether binding was seen depends on the method and setting. Binding seen in cells or lysates may run through a third protein. Some results given as binding are weak or reduced against the parent protein; the word gives no strength.

Experiments:
[1] = molecular target: T1, protein with Protein ID peg.804 (β subunit of the monooxygenase from Rhodococcus wratislaviensis C31-06) (Rhodococcus wratislaviensis); experiment: conclusion from the gel filtration and SDS-PAGE of the co-purified proteins in Example 7
T1 sequence: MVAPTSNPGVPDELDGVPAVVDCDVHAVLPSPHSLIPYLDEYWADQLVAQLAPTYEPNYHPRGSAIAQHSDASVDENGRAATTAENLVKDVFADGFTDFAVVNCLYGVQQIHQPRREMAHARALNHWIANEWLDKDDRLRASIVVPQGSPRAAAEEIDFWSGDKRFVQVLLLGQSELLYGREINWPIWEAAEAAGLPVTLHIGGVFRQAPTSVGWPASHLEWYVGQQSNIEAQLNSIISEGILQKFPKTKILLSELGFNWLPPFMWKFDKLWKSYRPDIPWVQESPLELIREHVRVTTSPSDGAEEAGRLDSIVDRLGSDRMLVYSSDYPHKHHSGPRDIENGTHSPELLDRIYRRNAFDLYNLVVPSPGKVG

[2] = molecular target: T1, protein with Protein ID peg.804 (β subunit of the monooxygenase from Rhodococcus wratislaviensis C31-06) (Rhodococcus wratislaviensis); experiment: co-purification on HisTALON Superflow, then gel filtration (Superdex 200 Increase; approximately 180,000 against assumed subunit weights of 42,000 and 43,000) and SDS-PAGE

B1: protein with Protein ID peg.803 (α subunit of the monooxygenase from Rhodococcus wratislaviensis C31-06) (enzyme)
chain: MTIIEHGSLGTLPAPSVTTGIVDADIHPVPQDGALEPYLDDRWKKHIREYGVRTTTGLQFISEYPQMYGGAMRADAWPESGYPGSDRELLRTQLLDKHNIQLGVLQCLAPGGQTLNPAGQALNQELAAALCRATNDWQLEHLVYPDPRMRAAIPVTFETPDYAVAEIERVGADPGVVAVLGTSKTLEPLGSRKYWPIYEASVAQNLPIQFHLSQGGGHANTGTGWTSYHTEYHTGHVQSFQSQLLSLVLSGTFDRFPTLKVMFVEGNVAHFAPLIQRMDYTWETLRGELPDLQRKPSEYIRDHIWASTQPIDEPEKPEHLAELLEEFCGDNVVFATDYPHFDFDDPETAFPRSFPVDLRDKILRGNGMRFFGVTNQAD
[1]
  binding: binds
[2]
  binding: binds
